Measurements from article PMC7916671.
Results are given in words; binding and its absence hold for the method and conditions named. In cells and extracts the contact can be indirect. A yes stands for co-enrichment or nearness to the bait. Other partners may have been found. No binding means not detected with the bait.

Target: Human serum albumin (human (endogenous in serum)), P02768
Test: affinity purification with mass spectrometry; IgA and albumin purified from the sera of healthy individuals, digested, LC-MS/MS
Conditions: remark: other sources report otherwise

binding: no binding
B1: Alpha-2-macroglobulin, P01023 24-1474 (protein)
chain: SVSGKPQYMVLVPSLLHTETTEKGCVLLSYLNETVTVSASLESVRGNRSLFTDLEAENDVLHCVAFAVPKSSSNEEVMFLTVQVKGPTQEFKKRTTVMVKNEDSLVFVQTDKSIYKPGQTVKFRVVSMDENFHPLNELIPLVYIQDPKGNRIAQWQSFQLEGGLKQFSFPLSSEPFQGSYKVVVQKKSGGRTEHPFTVEEFVLPKFEVQVTVPKIITILEEEMNVSVCGLYTYGKPVPGHVTVSICRKYSDASDCHGEDSQAFCEKFSGQLNSHGCFYQQVKTKVFQLKRKEYEMKLHTEAQIQEEGTVVELTGRQSSEITRTITKLSFVKVDSHFRQGIPFFGQVRLVDGKGVPIPNKVIFIRGNEANYYSNATTDEHGLVQFSINTTNVMGTSLTVRVNYKDRSPCYGYQWVSEEHEEAHHTAYLVFSPSKSFVHLEPMSHELPCGHTQTVQAHYILNGGTLLGLKKLSFYYLIMAKGGIVRTGTHGLLVKQEDMKGHFSISIPVKSDIAPVARLLIYAVLPTGDVIGDSAKYDVENCLANKVDLSFSPSQSLPASHAHLRVTAAPQSVCALRAVDQSVLLMKPDAELSASSVYNLLPEKDLTGFPGPLNDQDNEDCINRHNVYINGITYTPVSSTNEKDMYSFLEDMGLKAFTNSKIRKPKMCPQLQQYEMHGPEGLRVGFYESDVMGRGHARLVHVEEPHTETVRKYFPETWIWDLVVVNSAGVAEVGVTVPDTITEWKAGAFCLSEDAGLGISSTASLRAFQPFFVELTMPYSVIRGEAFTLKATVLNYLPKCIRVSVQLEASPAFLAVPVEKEQAPHCICANGRQTVSWAVTPKSLGNVNFTVSAEALESQELCGTEVPSVPEHGRKDTVIKPLLVEPEGLEKETTFNSLLCPSGGEVSEELSLKLPPNVVEESARASVSVLGDILGSAMQNTQNLLQMPYGCGEQNMVLFAPNIYVLDYLNETQQLTPEIKSKAIGYLNTGYQRQLNYKHYDGSYSTFGERYGRNQGNTWLTAFVLKTFAQARAYIFIDEAHITQALIWLSQRQKDNGCFRSSGSLLNNAIKGGVEDEVTLSAYITIALLEIPLTVTHPVVRNALFCLESAWKTAQEGDHGSHVYTKALLAYAFALAGNQDKRKEVLKSLNEEAVKKDNSVHWERPQKPKAPVGHFYEPQAPSAEVEMTSYVLLAYLTAQPAPTSEDLTSATNIVKWITKQQNAQGGFSSTQDTVVALHALSKYGAATFTRTGKAAQVTIQSSGTFSSKFQVDNNNRLLLQQVSLPELPGEYSMKVTGEGCVYLQTSLKYNILPEKEEFPFALGVQTLPQTCDEPKAHTSFQISLSVSYTGSRSASNMAIVDVKMVSGFIPLKPTVKMLERSNHVSRTEVSSNHVLIYLDKVSNQTLSLFFTVLQDVPVRDLKPAIVKVYDYYETDEFAIAEYNAPCSKDLGNA
